Results reported in PubChem BioAssay AID504775 (Broad Institute, 2011).
The campaign covered roughly 320,000 compounds. About 310 (0.097%) were called active. Inconclusive results, whose numbers are uncertain, are shown with a selection of clear calls.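 The calls were made as follows: active = mean replicate activation of at least 60% and every replicate at or above 60%; inconclusive = mean or all-replicate condition met, but not both; inactive = mean below 60% and not all replicates reaching 60%.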

Assay: enhancers of HDL lipid transfer via mSR-BI – ldlA[mSR-BI] CHO cells, DiI fluorescence, primary screen (AID 504775);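 also: 0% = median plate neutral-control signal and 100% = twice that signal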
Details: DiI-HDL uptake fluorescence, 3 h, at 12.5 µM, stronger effect = higher value, 100 = double the neutral-control signal
In short: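 Test system: SR-BI-overexpressing, LDLR-lacking CHO cells; Medium: Ham's F12 with 0.5% BSA, HEPES 25 mM, pH 7.4; Schedule: 3 h, 37 °C; Technique: bottom-read fluorescence, 550/595 nm.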

Row | Structure (SMILES) | activation
1 | FC(F)(F)c1cc(-c2ccco2)nc2ncnn12 | inconclusive: 60.7%
2 | O=C(/C=C/c1ccc(Cl)cc1)c1cccnc1 | inactive: 3.73%
3 | CCN1CCN(C(=O)c2cc(COc3ccc4ncccc4c3)on2)CC1 | inconclusive: 165%
4 | CC(C)CNC(=O)N1c2ccccc2Sc2ccccc21 | inconclusive: 157%
5 | COc1ccccc1NC(=O)CSc1nnc(-c2ccncc2)n1CC1CCCO1 (stereo not given) | inconclusive: 430%
6 | Cc1cc(C)c(S(=O)(=O)N2CCOC2CNC(=O)C(=O)NCCc2c[nH]c3ccccc23)c(C)c1 (stereo not given) | active: 196%
7 | CN(CC(=O)NCc1ccco1)CC(=O)Nc1cc(S(C)(=O)=O)ccc1Cl | inconclusive: 117%
8 | N#CC(C#N)=C1c2cc(S(=O)(=O)NCCO)ccc2-c2ccc(S(=O)(=O)NCCO)cc21 | active: 197%
9 | COc1ccc(NC(=O)Cn2c3ccccc3c3nc4n(c(=O)c32)CCS4)cc1 | inconclusive: 193%
10 | O=C(Nc1ccccc1)Nc1nc(-c2ccccc2)cs1 | inconclusive: 216%
11 | COc1ccccc1-n1nnnc1SCC(=O)NC1CC1 | inconclusive: 142%
12 | CC(C)C[C@H]1CNC(=S)N1CC1CCCN1C[C@H](Cc1ccc(O)cc1)N1C[C@H](Cc2ccccc2)N(CC2CCCCCC2)C1=S (stereo not given in full) | inactive: 10.5%
13 | O=C1Nc2ccccc2Nc2ccccc21 | inconclusive: 92.6%
14 | O=C(ON=C1CCN(S(=O)(=O)c2ccccc2)CC1)c1cccc(Cl)c1 | inconclusive: 279%
15 | CC1CCC(NC(=O)CN(C)S(=O)(=O)c2ccc3c(c2)c(=O)n(C)c(=O)n3C)CC1 (stereo not given) | active: 246%
16 | CCn1cc(SCC(N)=O)c2ccccc21 | inconclusive: 104%
17 | O=C(NNC(=O)c1cc2ccccc2o1)c1ccc(Cl)cc1 | active: 510%
18 | Nc1c(C(=O)NC2CCCC2)c2nc3ccccc3nc2n1/N=C/c1cccnc1 | inconclusive: 69.6%
19 | CCC1S/C(=C(\C#N)C(N)=O)N(c2ccc(F)cc2)C1=O (stereo not given) | inconclusive: 152%
20 | CCC(CC)COC(=O)C1=C(C)NC(=O)NC1c1ccc2c(c1)OCO2 (stereo not given) | inactive: 6.03%

Row | Structure (SMILES) | activation
21 | O=S(=O)(NN1CCOCC1)c1ccc(Br)cc1 | inconclusive: 479%
22 | COc1cccc(C(=O)Nc2nnc(S(=O)(=O)N(C)Cc3ccc(F)cc3)s2)c1 | inconclusive: 113%
23 | O=C1C(Cl)=C(N2CCN(Cc3ccccc3)CC2)C(=O)N1Cc1ccccc1 | inconclusive: 397%
24 | O=C1/C(=C\c2ccco2)SC(=S)N1c1ccc(O)cc1 | inactive: 12.2%
25 | Cc1ccc2oc(-c3cccc(NC(=O)c4ccc(Br)o4)c3)nc2c1 | inactive: -11.8%
26 | CCOc1cc(/C=N/NC(=O)c2cccnc2)ccc1OC(=O)c1ccco1 | inconclusive: 97.8%
27 | Cc1cc(C(=O)OCC(=O)NC2CCC(C)CC2)c(C)o1 (stereo not given) | inconclusive: 98.1%
28 | O=c1c2sc3ccccc3c2[nH]c(=S)n1CCN1CCOCC1 | active: 71.3%
29 | O=CN1CCCN(Cc2nc(Cc3ccccc3F)no2)CC1 | inconclusive: 64.1%
30 | Cc1ccc(OCCNC(=O)c2ccccc2OCc2c(C)noc2C)cc1 | inactive: -16.7%
31 | CCCn1c(Sc2nnnn2-c2ccccc2)n[nH]c1=O | active: 79.6%
32 | Cn1cc(S(=O)(=O)Cc2ccc(F)cc2)c2ccccc21 | inactive: 7.15%
33 | NC(=O)C1CC(=O)N(c2ccc(OCc3c(Cl)cccc3Cl)cc2)C1 (stereo not given) | inconclusive: 322%
34 | Cc1ccccc1NC(=O)c1ccc(Cl)c(NC(=O)c2ccncc2)c1 | inactive: 10.1%
35 | COc1cccc(CNC(=O)CCS(=O)(=O)c2cccs2)c1 | inconclusive: 77.7%
36 | CCN(CC)c1cc(Cl)nc(N)n1 | inconclusive: 201%
37 | Cc1cc(C(=O)CN2C(=O)NC3(CCCC3)C2=O)c(C)n1-c1ccc2c(c1)OCO2 | inactive: 45.1%
38 | CCOc1ccccc1N1CCN(C(=O)c2cc(S(=O)(=O)N(C)C)ccc2N2CCCC2)CC1 | inconclusive: 154%
39 | CN1CCN(CC(=O)c2ccccc2F)CC1 | inconclusive: 148%
40 | Nc1cccnc1Oc1ccccc1F | inconclusive: 414%

Row | Structure (SMILES) | activation
41 | CCN(CC(=O)Nc1c(F)cccc1F)C(=O)C1CC1 | inconclusive: 168%
42 | CC(=O)C1=CN(Cc2ccccc2)CCC1=O | active: 245%
43 | CCCSCCCNC(=O)CC1Oc2ccccc2NC1=O (stereo not given) | inconclusive: 133%
44 | O=C(N/C(=C/c1ccc([N+](=O)[O-])cc1)C(=O)N1CCOCC1)c1ccco1 | inactive: 30.3%
45 | CN1C2C=C3C(C#N)=C(N)C(C#N)(C#N)C(c4ccc(Br)cc4)C3C1CC2 (stereo not given) | inactive: 31.3%
46 | CSc1cccc(NS(=O)(=O)c2cc(Br)cnc2N)c1 | inconclusive: 188%
47 | O=C(CCNC(=O)c1ccc(Cl)cc1)NCc1ccccc1Cl | inconclusive: 198%
48 | CC(=O)Cn1c(=O)oc2ccccc21 | active: 113%
49 | CC(=O)c1ccc(NC(=S)NC(C)c2ccc(Cl)cc2Cl)cc1 (stereo not given) | inactive: -19.3%
50 | Cc1c(NC(=S)NC(=O)c2ccc(-c3ccc(Cl)cc3)o2)cccc1C(=O)O | inconclusive: 183%
51 | CC1(C)CCCC2=C1CC1C(=O)N(Cc3cccnc3)C(=O)C1C2 (stereo not given) | inconclusive: 204%
52 | CC(C)(C)CN1CCN(Cc2nc(-c3ccc(F)cc3)cs2)CC1CCO (stereo not given) | inconclusive: 94.2%
53 | CC(N)c1ccc(Cl)cc1Cl (stereo not given) | inconclusive: 60.2%
54 | O=C(CCN1C(=O)c2ccccc2C1=O)C1=NN[C@@H]2C(=O)N(c3cccc(F)c3)C(=O)[C@H]12 | inconclusive: 71.8%
55 | COc1cccc(NC(=O)CN(C)C(=O)c2ccc(-c3ccccc3Cl)o2)c1 | inactive: 16.6%
56 | Cc1ccc2c(c1)c(C1=NC(=S)NC1=O)c(O)n2C | inactive: -6.02%
57 | O=C(Cn1nc(-c2ccccc2)ccc1=O)Nc1ccc(-n2cnnn2)cc1 | active: 116%
58 | Cc1ccc(NS(=O)(=O)c2ccc3c(c2)NC(=O)CCS3)c(Br)c1 | inconclusive: 118%
59 | CC(C)(C)NC(=O)C(=O)NNC(=O)C12CC3CC(CC(C3)C1)C2 | active: 111%
60 | O=C(NNC(=O)c1cccc2ccccc12)c1ccc(Cl)c(Cl)c1 | inconclusive: 112%

Some values from the results shown:
activation, O=C(Cn1nc(-c2ccccc2)ccc1=O)Nc1ccc(-n2cnnn2)cc1 is entered as active: 116%
activation, O=C1/C(=C\c2ccco2)SC(=S)N1c1ccc(O)cc1 is entered as inactive: 12.2%
activation, CCn1cc(SCC(N)=O)c2ccccc21 is entered as inconclusive: 104%

A draw from above in order of molecular weight, largest number first:
Row | Structure (SMILES) | activation
14 | O=C(ON=C1CCN(S(=O)(=O)c2ccccc2)CC1)c1cccc(Cl)c1 | inconclusive: 279%
26 | CCOc1cc(/C=N/NC(=O)c2cccnc2)ccc1OC(=O)c1ccco1 | inconclusive: 97.8%
40 | Nc1cccnc1Oc1ccccc1F | inconclusive: 414%
